Measured values as given in patent US7897543B2, “Spiroketal-substituted cyclic ketoenols” (Bayer CropScience AG, priority 2005, dated 2011).
Some results were stated once for a whole list of compounds, not compound by compound. At least one structure is not confirmed: it was looked up by name or label, or the drawing left a doubt.

Assays:
Type in all cases: in vivo
Myzus persicae [1] = test: Example S: Myzus persicae Test (hydroponic treatment); conditions: concentration of 20 ppm
Aphis gossypii = test: Example L: Aphis gossypii Test; conditions: concentration of 100 ppm
Setaria viridis [2] = test: Example V 2: Herbicidal Post-Emergence Action; conditions: post-emergence method at 320 g of a.i./ha
Description: (§1) Seeds of monocotyledonous and dicotyledonous weed and crop plants are placed into sandy loam in wood fibre pots, covered with soil and cultivated in a greenhouse under good growth conditions. 2-3 weeks after sowing, the test plants are treated at the one-leaf stage. The test compounds, formulated as wettable powders (WP), are then, in various dosages with a water application rate of 600 l/ha (converted), with 0.2% of wetting agent added, sprayed onto the green parts of the plants. After the test plants have been kept in the greenhouse under optimum growth conditions for about 3 weeks, the effect of the preparations is rated visually in comparison to untreated controls (herbicidal effect in percent (%): 100% effect=the plants have died, 0% effect=like control plants).

Echinocloa crus-galli = test: Example V 2: Herbicidal Post-Emergence Action; conditions: post-emergence method at 320 g of a.i./ha
Description: as §1

Lolium multiflorum = test: Example V 2: Herbicidal Post-Emergence Action; conditions: post-emergence method at 320 g of a.i./ha
Description: as §1

Spodoptera frugiperda = test: Example R: Spodoptera frugiperda Test (spray treatment); conditions: application rate of 500 g/ha
Myzus persicae [3] = test: Example Q: Myzus Test (spray treatment); conditions: application rate of 500 g/ha
Tetranychus urticae = test: Example J: Tetranychus Test (OP resistant/dip treatment); conditions: concentration of 100 ppm
Setaria viridis [4] = test: Example V 1: Herbicidal Pre-Emergence Action; conditions: pre-emergence method at 320 g of a.i./ha
Solium multiflorum = test: Example V 1: Herbicidal Pre-Emergence Action; conditions: pre-emergence method at 320 g of a.i./ha

| Structure (SMILES) | activity (kill in %) (Myzus persicae [1]) [%] | activity (kill in %) (Aphis gossypii) [%] | activity (herbicidal effect in percent) (Setaria viridis [2]) [%] | activity (herbicidal effect in percent) (Echinocloa crus-galli) [%] | activity (herbicidal effect in percent) (Lolium multiflorum) [%] | activity in % (Spodoptera frugiperda) [%] | activity in % (Myzus persicae [3]) [%] | activity in % (Tetranychus urticae) [%] | activity (herbicidal effect in percent) (Setaria viridis [4]) [%] | activity (herbicidal effect in percent) (Solium multiflorum) [%] |
| --- | --- | --- | --- | --- | --- | --- | --- | --- | --- | --- |
| Cc1cc(C)c(C2=C(O)C3(CCC4(CC3)OC(C)C(C)O4)NC2=O)c(C)c1 (mixture of isomers) [Ex. I-1-a-7] | ≥ 95 | ≥ 80 | – | – | – | – | – | – | – | – |
| Cc1cc(C)c(C2=C(O)C3(CCC4(CC3)OC(C)C(C)O4)NC2=O)c(C)c1 (mixture of isomers) [Ex. I-1-a-10] | – | – | ≥ 80 | ≥ 80 | ≥ 80 | ≥ 80 | ≥ 90 | – | – | – |
| Cc1cc(Cl)cc(C)c1C1=C(O)C2(CCC3(CC2)OC(C)C(C)O3)NC1=O (mixture of isomers) [Ex. I-1-a-30] | ≥ 95 | ≥ 80 | – | – | – | – | ≥ 90 | – | – | – |
| Cc1cc(Cl)cc(C)c1C1=C(O)C2(CCC3(CC2)OCC(C)O3)NC1=O (mixture of isomers) [Ex. I-1-a-31] | – | ≥ 80 | – | – | – | ≥ 80 | ≥ 90 | – | – | – |
| Cc1cc(Br)cc(C)c1C1=C(O)C2(CCC3(CC2)OC(C)C(C)O3)NC1=O (mixture of isomers) [Ex. I-1-a-46] | ≥ 95 | – | – | – | – | – | ≥ 90 | ≥ 90 | – | – |
| Cc1ccc(-c2ccc(Cl)cc2)c(C)c1C1=C(O)C2(CCC3(CC2)OCC(C)O3)NC1=O (mixture of isomers) [Ex. I-1-a-51] | – | – | – | – | – | ≥ 80 | ≥ 90 | – | – | – |
| CCc1cc(Br)cc(C)c1C1=C(O)C2(CCC3(CC2)OCC(C)O3)NC1=O (mixture of isomers) [Ex. I-1-a-53] | ≥ 95 | ≥ 80 | – | – | – | – | ≥ 90 | ≥ 90 | – | – |
| Cc1cc(Br)cc(C)c1C1=C(O)C2(CCC3(CC2)OC(C)CC(C)O3)NC1=O (mixture of isomers) [Ex. I-1-a-56] | ≥ 95 | ≥ 80 | – | – | – | – | ≥ 90 | – | – | – |
| CCc1cc(Br)cc(C)c1C1=C(O)C2(CCC3(CC2)OC(C)CC(C)O3)NC1=O (mixture of isomers) [Ex. I-1-a-63] | – | ≥ 80 | – | – | – | – | ≥ 90 | – | – | – |
| CC1COC2(CCC3(CC2)NC(=O)C(c2cc(-c4ccc(Cl)cc4)ccc2Cl)=C3O)OC1 (mixture of isomers) [Ex. I-1-a-65] | – | – | – | – | – | ≥ 80 | ≥ 90 | – | – | – |
| Cc1ccc(-c2ccc(Cl)cc2)cc1C1=C(O)C2(CCC3(CC2)OCCC(C)O3)NC1=O (mixture of isomers) [Ex. I-1-a-66] | – | – | – | – | – | ≥ 80 | ≥ 90 | – | – | – |
| CCc1cc(C)cc(Br)c1C1=C(OC(=O)C(C)C)C2(CCCC3(C2)OCC(COC)O3)NC1=O (mixture of isomers) [Ex. I-1-b-10] | ≥ 95 | – | ≥ 80 | ≥ 80 | ≥ 80 | – | ≥ 90 | – | ≥ 80 | ≥ 80 |
| CCOC(=O)OC1=C(c2cc(C)ccc2C)C(=O)NC12CCC1(CC2)OCC(C)O1 (mixture of isomers) [Ex. I-1-c-19] | ≥ 95 | ≥ 80 | – | – | – | ≥ 80 | ≥ 90 | – | – | – |
| CCOC(=O)OC1=C(c2c(C)cc(Br)cc2C)C(=O)NC12CCC1(CC2)OCC(C)CO1 (mixture of isomers) [Ex. I-1-c-32] | ≥ 95 | ≥ 80 | – | – | – | – | ≥ 90 | – | – | – |
| CCOC(=O)OC1=C(c2cc(C)ccc2C)C(=O)NC12CCC1(CC2)OCC(C)CO1 (mixture of isomers) [Ex. I-1-c-36] | – | – | – | – | – | ≥ 80 | ≥ 90 | – | – | – |
| Cc1cc(Cl)cc(C)c1C1=C(O)C2(CCCC3(C2)OCCO3)NC1=O (racemic) [Ex. I-1-a-70] | ≥ 95 | – | – | – | – | – | ≥ 90 | ≥ 90 | – | – |
| CCc1cc(C)cc(Br)c1C1=C(OC(=O)C(C)C)C2(CCCC3(C2)OCCO3)NC1=O (racemic) [Ex. I-1-b-8] | ≥ 95 | – | ≥ 80 | ≥ 80 | ≥ 80 | – | ≥ 90 | – | ≥ 80 | ≥ 80 |

| Structure (SMILES) | activity (kill in %) (Myzus persicae [1]) [%] | activity (kill in %) (Aphis gossypii) [%] | activity (herbicidal effect in percent) (Setaria viridis [2]) [%] | activity (herbicidal effect in percent) (Echinocloa crus-galli) [%] | activity (herbicidal effect in percent) (Lolium multiflorum) [%] | activity in % (Spodoptera frugiperda) [%] | activity in % (Myzus persicae [3]) [%] | activity in % (Tetranychus urticae) [%] | activity (herbicidal effect in percent) (Setaria viridis [4]) [%] | activity (herbicidal effect in percent) (Solium multiflorum) [%] |
| --- | --- | --- | --- | --- | --- | --- | --- | --- | --- | --- |
| CCCC1COC2(CCC3(CC2)NC(=O)C(c2c(C)cc(C)cc2C)=C3O)O1 (single isomer, unassigned) [Ex. I-1-a-9] | – | – | – | – | – | – | ≥ 90 | ≥ 90 | – | – |
| CCCC1COC2(CCC3(CC2)NC(=O)C(c2c(C)cc(C)cc2C)=C3O)O1 (stereo not shown) [Ex. I-1-a-8] | – | – | – | – | – | ≥ 80 | – | – | – | – |
| Cc1cc(Br)cc(C)c1C1=C(O)C2(CCC3(CC2)OCCCO3)NC1=O [Ex. I-1-a-19] | – | ≥ 80 | ≥ 80 | ≥ 80 | ≥ 80 | – | ≥ 90 | – | – | – |
| CCc1cc(Br)cc(C)c1C1=C(O)C2(CCC3(CC2)OCCO3)NC1=O [Ex. I-1-a-39] | ≥ 95 | – | ≥ 80 | ≥ 80 | ≥ 80 | – | ≥ 90 | – | ≥ 80 | ≥ 80 |
| CCc1cc(C)cc(CC)c1C1=C(O)C2(CCC3(CC2)OCCO3)NC1=O [Ex. I-1-a-40] | ≥ 95 | – | ≥ 80 | ≥ 80 | ≥ 80 | – | ≥ 90 | – | ≥ 80 | ≥ 80 |
| CCc1cc(Cl)cc(OC)c1C1=C(O)C2(CCC3(CC2)OCCO3)NC1=O [Ex. I-1-a-42] | ≥ 95 | – | ≥ 80 | ≥ 80 | ≥ 80 | – | ≥ 90 | – | ≥ 80 | ≥ 80 |
| COc1cc(C)cc(C)c1C1=C(O)C2(CCC3(CC2)OCCO3)NC1=O [Ex. I-1-a-43] | ≥ 95 | – | – | – | – | – | ≥ 90 | ≥ 90 | ≥ 80 | ≥ 80 |
| CCc1cc(C)cc(Br)c1C1=C(O)C2(CCC3(CC2)OCCO3)NC1=O [Ex. I-1-a-48] | ≥ 95 | ≥ 80 | ≥ 80 | ≥ 80 | ≥ 80 | – | ≥ 90 | – | ≥ 80 | ≥ 80 |
| CC1(C)COC2(CCC3(CC2)NC(=O)C(c2cc(-c4ccc(Cl)cc4)ccc2Cl)=C3O)OC1 [Ex. I-1-a-64] | – | – | – | – | – | ≥ 80 | ≥ 90 | – | – | – |
| Cc1ccc(-c2ccc(Cl)cc2)cc1C1=C(O)C2(CCC3(CC2)OCC(C)(C)CO3)NC1=O [Ex. I-1-a-67] | – | – | – | – | – | ≥ 80 | ≥ 90 | – | – | – |
| CCc1cc(Cl)cc(Cl)c1C1=C(OC(=O)C(C)C)C2(CCC3(CC2)OCCO3)NC1=O [Ex. I-1-b-4] | ≥ 95 | ≥ 80 | – | – | – | – | ≥ 90 | – | ≥ 80 | ≥ 80 |
| CCOC(=O)OC1=C(c2c(C)cc(C)cc2CC)C(=O)NC12CCC1(CC2)OCCO1 [Ex. I-1-c-15] | ≥ 95 | ≥ 80 | ≥ 80 | ≥ 80 | ≥ 80 | – | ≥ 90 | – | ≥ 80 | ≥ 80 |
| CCOC(=O)OC1=C(c2c(CC)cc(C)cc2CC)C(=O)NC12CCC1(CC2)OCCO1 [Ex. I-1-c-23] | ≥ 95 | – | ≥ 80 | ≥ 80 | ≥ 80 | – | ≥ 90 | – | ≥ 80 | ≥ 80 |
| CCOC(=O)OC1=C(c2c(CC)cc(Cl)cc2OC)C(=O)NC12CCC1(CC2)OCCO1 [Ex. I-1-c-25] | ≥ 95 | – | ≥ 80 | ≥ 80 | ≥ 80 | – | ≥ 90 | – | ≥ 80 | ≥ 80 |
| CCOC(=O)OC1=C(c2cc(-c3ccc(Cl)cc3)ccc2C)C(=O)NC12CCC1(CC2)OCCCO1 [Ex. I-1-c-31] | – | – | – | – | – | ≥ 80 | ≥ 90 | – | – | – |
| CCOC(=O)OC1=C(c2cc(C)ccc2C)C(=O)NC12CCCC1(C2)OCCO1 (stereo not shown) [Ex. I-1-c-40] | – | – | – | – | – | ≥ 80 | ≥ 90 | – | – | – |
| Cc1cc(Cl)cc(C)c1C1=C(O)C2(CCC3(CC2)OCC(C)(C)CO3)OC1=O [Ex. I-2-a-7] | – | – | – | – | – | ≥ 80 | ≥ 90 | – | – | – |
